PubChem BioAssay AID1159578 – Peter MacCallum Cancer Centre | 2015

Aim: 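Knock-downs that alter how fast lymphatic endothelial cells migrate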 (primary screen)
Cells: human lymphatic endothelial cells
Reagent: siRNA pool against human genes, 40 nM
Timing: 48 h after transfection
Measurement: 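Cells stained with dye and imaged after a scratch; covered wound area and nuclei counted, duplicates averaged, migration set against mock wells and turned into a robust z-score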
Direction: migration robust z-score: higher = faster migration into the scratch; nuclei per well: higher = more cells in the well
Active means: 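Pools averaging fewer than 3300 nuclei are never called; remaining pools count as changed when migration robust z lies outside -2 to 2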
Meaning of the calls: active = migration changed; inactive = no migration change, or too few cells
In all, the deposit lists about 18,000 reagents; below is an unselected part. About 1,030 of them (5.7%) count as active. 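Inactive calls also include pools with fewer than 3300 nuclei, whose migration was not assessed.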 Raw values vary from plate to plate and are shown uncorrected. Not all columns of the deposit are shown.

gene knocked down	migration robust z-score	migration class with cell-count check	nuclei per well, duplicate mean	activity call
ETV3L	-0.28	migration z between -2 and 2; enough cells	5204	inactive
TNFAIP3	0.16	migration z between -2 and 2; enough cells	4699	inactive
SYTL1	-0.18	migration z between -2 and 2; enough cells	5826	inactive
GLO1	-1.01	migration z between -2 and 2; enough cells	5344	inactive
P3H4	-1.27	migration z between -2 and 2; enough cells	4480	inactive
SAMD1	1.14	migration z between -2 and 2; enough cells	5475	inactive
OR5M3	0.3	migration z between -2 and 2; enough cells	5630	inactive
PCDHA9	-1.29	migration z between -2 and 2; enough cells	5668	inactive
ATP6V0A1	0.13	migration z between -2 and 2; enough cells	6756	inactive
SLC36A1	-2.18	migration z below -2; enough cells	3930	active
KBTBD7	-0.66	migration z between -2 and 2; enough cells	4528	inactive
GPR108	-0.9	migration z between -2 and 2; enough cells	4342	inactive
GIPC2	0.73	migration z between -2 and 2; enough cells	5528	inactive
TMEM17	0.52	migration z between -2 and 2; enough cells	5326	inactive
CA11	-0.57	migration z between -2 and 2; enough cells	6034	inactive
COQ3	1.53	migration z between -2 and 2; enough cells	5380	inactive
CELSR3	-0.62	migration z between -2 and 2; enough cells	5395	inactive
RHOBTB2	-0.28	migration z between -2 and 2; enough cells	7504	inactive
SLC13A4	-1.19	migration z between -2 and 2; enough cells	3536	inactive
ASB8	-0.34	migration z between -2 and 2; enough cells	5436	inactive
SLC37A2	1.25	migration z between -2 and 2; enough cells	3302	inactive
JAKMIP1	-0.02	migration z between -2 and 2; enough cells	5292	inactive
SENP6	0.86	migration z between -2 and 2; enough cells	5903	inactive
TMA16	1.2	migration z between -2 and 2; enough cells	5816	inactive
NCALD	-0.34	migration z between -2 and 2; enough cells	5812	inactive
SGO2	0.06	migration z between -2 and 2; enough cells	5653	inactive
RNF7	0.9	migration z between -2 and 2; enough cells	6448	inactive
MRPL17	-1.06	migration z between -2 and 2; enough cells	5946	inactive
CIAO2A	0.05	migration z between -2 and 2; enough cells	6096	inactive
PLPP4	-0.62	migration z between -2 and 2; enough cells	4662	inactive
CPSF7	0.98	migration z between -2 and 2; enough cells	6414	inactive
PDE4D	-0.62	migration z between -2 and 2; enough cells	4352	inactive
PHGDH	-1.38	migration z between -2 and 2; enough cells	7610	inactive
GM2A	-0.1	migration z between -2 and 2; enough cells	5752	inactive
IFNLR1	0.57	migration z between -2 and 2; enough cells	6818	inactive
NEK8	-4.54	under 3300 nuclei; migration not judged	2244	inactive
ZNF385B	-1.38	migration z between -2 and 2; enough cells	4286	inactive
COL10A1	-0.64	migration z between -2 and 2; enough cells	5166	inactive
DCLRE1C	-0.42	migration z between -2 and 2; enough cells	6277	inactive

Sorted by “migration robust z-score” (high to low): 3 of the entries above
gene knocked down	migration robust z-score	migration class with cell-count check	nuclei per well, duplicate mean	activity call
KBTBD7	-0.66	migration z between -2 and 2; enough cells	4528	inactive
GPR108	-0.9	migration z between -2 and 2; enough cells	4342	inactive
SLC36A1	-2.18	migration z below -2; enough cells	3930	active
